Paper PMC3775441
These are yes or no findings as the source states them, for the method shown. Binding seen in cells or lysates may run through a third protein. Some binding calls cover weakened binding; strength is not graded here.

Protein sequences, listed by entry. Tags and fused reporters are not part of them.
UniProt O35718: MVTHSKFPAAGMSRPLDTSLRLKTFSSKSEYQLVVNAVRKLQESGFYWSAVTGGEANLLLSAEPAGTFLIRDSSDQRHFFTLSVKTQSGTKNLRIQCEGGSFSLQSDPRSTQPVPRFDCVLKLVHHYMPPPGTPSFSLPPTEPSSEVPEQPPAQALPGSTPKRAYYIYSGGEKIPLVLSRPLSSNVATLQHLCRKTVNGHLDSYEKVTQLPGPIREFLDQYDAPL
UniProt P42227: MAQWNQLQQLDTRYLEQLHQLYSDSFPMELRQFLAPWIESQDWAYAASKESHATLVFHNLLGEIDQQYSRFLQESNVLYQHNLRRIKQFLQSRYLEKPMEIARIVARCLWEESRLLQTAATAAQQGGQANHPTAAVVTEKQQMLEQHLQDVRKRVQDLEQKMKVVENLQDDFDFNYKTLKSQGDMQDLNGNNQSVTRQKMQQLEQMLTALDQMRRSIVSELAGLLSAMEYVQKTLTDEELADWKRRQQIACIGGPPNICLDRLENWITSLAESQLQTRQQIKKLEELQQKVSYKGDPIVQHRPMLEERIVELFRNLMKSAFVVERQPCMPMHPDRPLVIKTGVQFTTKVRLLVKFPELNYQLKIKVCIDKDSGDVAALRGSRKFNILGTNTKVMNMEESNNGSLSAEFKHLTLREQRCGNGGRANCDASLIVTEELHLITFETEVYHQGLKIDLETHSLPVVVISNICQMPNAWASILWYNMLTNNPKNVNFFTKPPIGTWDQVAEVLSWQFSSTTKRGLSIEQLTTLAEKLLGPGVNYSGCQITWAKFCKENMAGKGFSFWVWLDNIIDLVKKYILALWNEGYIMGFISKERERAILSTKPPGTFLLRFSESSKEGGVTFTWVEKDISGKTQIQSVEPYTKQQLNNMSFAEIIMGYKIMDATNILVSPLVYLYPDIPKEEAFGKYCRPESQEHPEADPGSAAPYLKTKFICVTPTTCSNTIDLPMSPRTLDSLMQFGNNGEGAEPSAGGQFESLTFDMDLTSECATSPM

Legend:
[1] = molecular target: SOCS3 (mouse (endogenous in Raw 264.7)) (UniProt O35718); assay: co-IP; Raw 264.7 cells, 60 min after 10 ug/mL E. coli LPS; anti-SOCS3 (sc-9023) covalently immobilised on amine-reactive columns (Pierce Co-IP kit), 500 ug lysate, 12 h at 4°C; blot for total STAT3
[2] = molecular target: SOCS3 (mouse (endogenous in Raw 264.7)) (UniProt O35718); assay: co-IP; Raw 264.7 cells, 10 min after 10 ug/mL E. coli LPS; anti-SOCS3 (sc-9023) covalently immobilised on amine-reactive columns (Pierce Co-IP kit), 500 ug lysate, 12 h at 4°C; blot for total STAT3

STAT3 (from UniProt P42227 1-770) was tested, and the binding [1] was “binds” and the binding [2] was “no binding (condition: 10 min after LPS stimulation)”.
